Measured values from PubChem BioAssay AID493085 (Broad Institute, 2011).
In all, about 2,400 compounds went through this assay and about 360 (15%) were called active. This list was built around the results that the source calls inconclusive (neither active nor inactive); the mix of calls is not that of the screen.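 Rule for the calls: active = falling-signal curve with half-maximal concentration at or below ten times the top tested dose; inconclusive = flat fit at 30 to 70% inhibition, or poor fit; inactive = signal rise, flat within 30%, or potency beyond limit.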

Assay: dox-induced RFP signal loss in R4-3T3 cells – cell-based, NIH3T3 R4, HSE-GFP and Tet-On RFP, cherry-pick, set 3, dose response (AID 493085);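 note: cells heat shocked 2 h at 42 °C with doxycycline to induce reporters; 0% = neutral control wells and -100% = didemnin B control at 400 nM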
Details: NIH3T3 R4 HSE-GFP/Tet-RFP reporter, fluorescence, 48 h; at 19.5 µM (top of the series)
In the case of COC(=O)[C@@H]1[C@@H](C(=O)OC)C2(c3ccccc3-c3ccccc32)N(c2ccc(Cl)cc2)N1C#N, the activity change, negative = inhibition is reported as inconclusive: -115%. For O=C(Cc1ccccc1)Oc1ccccc1N1C(=O)CCC1=O, the activity change, negative = inhibition was inconclusive: 61.2%. In the case of COc1ccc(-c2nc3ccccc3c(=O)n2-c2cccnc2)cc1, the activity change, negative = inhibition is reported as inconclusive: -4.21%. For COc1ccc(Oc2cc(NC(=O)c3nn(C)cc3[N+](=O)[O-])cc([N+](=O)[O-])c2)cc1, the activity change, negative = inhibition was inconclusive: -73%. In the case of C=C1C(=O)O[C@@H]2C[C@@H](C)[C@@H]3C=CC(=O)[C@@]3(C)[C@@H](OC(=O)CC(=O)O[C@H]3[C@@H]4C(=C)C(=O)O[C@@H]4C[C@@H](C)[C@@H]4C=CC(=O)[C@]43C)[C@H]12, the activity change, negative = inhibition is reported as inconclusive: -50.8%. In the case of COC(=O)C[C@]1(C(=O)OC)CN(C#N)N(c2ccc(Cl)cc2)C12c1ccccc1-c1ccccc12, the activity change, negative = inhibition is reported as inconclusive: -37.5%. In the case of O=C(c1ccc(Cl)cc1)C1CCCN(Cc2ccc3c(c2)OCCO3)C1 (configuration not stated), the activity change, negative = inhibition is reported as inconclusive: 16.5%.
